Measurements reported in paper PMC5454318.
No constants are given. Whether binding was seen depends on the method and setting. For part of these data: Binding seen in cells or lysates may run through a third protein. Some binding calls cover weakened binding; strength is not graded here.

The chains behind the UniProt entries cited, without tags or fusion partners.
UniProt Q9UPU5: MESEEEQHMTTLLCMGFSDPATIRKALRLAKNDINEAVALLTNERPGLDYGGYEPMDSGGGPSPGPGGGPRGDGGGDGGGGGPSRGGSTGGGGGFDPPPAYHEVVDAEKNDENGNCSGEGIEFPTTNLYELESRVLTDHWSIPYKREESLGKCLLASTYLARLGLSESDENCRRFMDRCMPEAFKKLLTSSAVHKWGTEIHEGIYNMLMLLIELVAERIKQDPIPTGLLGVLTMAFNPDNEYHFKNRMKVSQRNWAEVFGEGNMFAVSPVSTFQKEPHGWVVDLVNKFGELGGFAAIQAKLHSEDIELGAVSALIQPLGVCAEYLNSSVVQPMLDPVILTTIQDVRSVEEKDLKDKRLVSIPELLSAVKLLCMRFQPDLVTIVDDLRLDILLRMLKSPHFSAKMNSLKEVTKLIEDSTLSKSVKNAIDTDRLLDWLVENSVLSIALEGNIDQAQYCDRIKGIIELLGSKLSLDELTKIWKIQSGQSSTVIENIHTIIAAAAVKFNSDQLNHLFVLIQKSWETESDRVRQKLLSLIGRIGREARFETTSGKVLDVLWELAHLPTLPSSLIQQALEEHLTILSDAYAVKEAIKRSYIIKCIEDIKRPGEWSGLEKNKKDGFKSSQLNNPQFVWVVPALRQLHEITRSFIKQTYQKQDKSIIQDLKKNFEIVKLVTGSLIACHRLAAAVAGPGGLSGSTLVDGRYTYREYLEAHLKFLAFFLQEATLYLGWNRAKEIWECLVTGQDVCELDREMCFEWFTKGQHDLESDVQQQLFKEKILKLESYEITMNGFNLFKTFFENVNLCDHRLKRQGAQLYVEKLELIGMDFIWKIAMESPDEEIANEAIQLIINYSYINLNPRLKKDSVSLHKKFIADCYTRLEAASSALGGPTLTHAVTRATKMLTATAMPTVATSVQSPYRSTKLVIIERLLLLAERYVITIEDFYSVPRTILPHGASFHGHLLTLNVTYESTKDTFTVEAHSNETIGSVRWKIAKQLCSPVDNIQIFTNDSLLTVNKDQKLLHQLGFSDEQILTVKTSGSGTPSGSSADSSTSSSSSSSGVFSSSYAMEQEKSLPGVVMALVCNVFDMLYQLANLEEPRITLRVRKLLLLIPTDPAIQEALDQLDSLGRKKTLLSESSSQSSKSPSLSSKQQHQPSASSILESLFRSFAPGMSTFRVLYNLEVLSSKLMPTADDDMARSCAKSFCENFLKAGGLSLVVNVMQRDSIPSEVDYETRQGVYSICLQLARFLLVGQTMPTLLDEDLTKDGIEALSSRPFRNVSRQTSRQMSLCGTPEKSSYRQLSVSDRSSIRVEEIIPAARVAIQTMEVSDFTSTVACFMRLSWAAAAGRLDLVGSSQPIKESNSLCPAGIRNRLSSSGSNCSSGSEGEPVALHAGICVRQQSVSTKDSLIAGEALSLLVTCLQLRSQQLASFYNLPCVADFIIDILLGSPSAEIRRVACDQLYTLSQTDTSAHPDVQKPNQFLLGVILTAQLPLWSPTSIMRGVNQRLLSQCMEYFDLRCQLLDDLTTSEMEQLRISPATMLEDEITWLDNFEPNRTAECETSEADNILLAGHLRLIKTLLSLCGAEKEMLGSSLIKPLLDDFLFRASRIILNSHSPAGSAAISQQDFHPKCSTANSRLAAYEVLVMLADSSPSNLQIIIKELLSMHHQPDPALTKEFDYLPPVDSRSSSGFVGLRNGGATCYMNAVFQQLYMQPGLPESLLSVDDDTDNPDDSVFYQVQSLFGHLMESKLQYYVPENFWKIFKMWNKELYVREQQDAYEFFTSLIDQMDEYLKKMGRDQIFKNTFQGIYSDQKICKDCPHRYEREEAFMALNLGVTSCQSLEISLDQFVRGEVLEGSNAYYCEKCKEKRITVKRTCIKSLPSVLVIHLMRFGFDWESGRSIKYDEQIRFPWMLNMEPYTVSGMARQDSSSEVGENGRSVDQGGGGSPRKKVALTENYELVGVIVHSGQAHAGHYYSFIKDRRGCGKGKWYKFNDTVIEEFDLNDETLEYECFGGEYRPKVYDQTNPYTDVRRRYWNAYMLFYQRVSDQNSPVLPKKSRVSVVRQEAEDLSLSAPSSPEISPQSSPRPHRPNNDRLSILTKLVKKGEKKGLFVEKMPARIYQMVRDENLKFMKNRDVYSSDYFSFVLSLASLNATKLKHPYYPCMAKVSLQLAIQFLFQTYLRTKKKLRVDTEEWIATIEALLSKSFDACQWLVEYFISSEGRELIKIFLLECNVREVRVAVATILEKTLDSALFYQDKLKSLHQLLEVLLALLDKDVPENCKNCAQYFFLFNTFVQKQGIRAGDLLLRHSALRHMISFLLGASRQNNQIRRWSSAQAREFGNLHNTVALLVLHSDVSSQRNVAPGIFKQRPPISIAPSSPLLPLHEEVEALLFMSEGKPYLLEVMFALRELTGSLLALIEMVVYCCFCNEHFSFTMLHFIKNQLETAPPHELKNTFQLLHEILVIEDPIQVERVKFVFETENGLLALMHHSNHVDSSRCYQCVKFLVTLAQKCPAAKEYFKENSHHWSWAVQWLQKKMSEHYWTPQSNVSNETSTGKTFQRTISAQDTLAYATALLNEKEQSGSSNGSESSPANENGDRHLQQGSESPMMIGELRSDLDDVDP
UniProt P12956: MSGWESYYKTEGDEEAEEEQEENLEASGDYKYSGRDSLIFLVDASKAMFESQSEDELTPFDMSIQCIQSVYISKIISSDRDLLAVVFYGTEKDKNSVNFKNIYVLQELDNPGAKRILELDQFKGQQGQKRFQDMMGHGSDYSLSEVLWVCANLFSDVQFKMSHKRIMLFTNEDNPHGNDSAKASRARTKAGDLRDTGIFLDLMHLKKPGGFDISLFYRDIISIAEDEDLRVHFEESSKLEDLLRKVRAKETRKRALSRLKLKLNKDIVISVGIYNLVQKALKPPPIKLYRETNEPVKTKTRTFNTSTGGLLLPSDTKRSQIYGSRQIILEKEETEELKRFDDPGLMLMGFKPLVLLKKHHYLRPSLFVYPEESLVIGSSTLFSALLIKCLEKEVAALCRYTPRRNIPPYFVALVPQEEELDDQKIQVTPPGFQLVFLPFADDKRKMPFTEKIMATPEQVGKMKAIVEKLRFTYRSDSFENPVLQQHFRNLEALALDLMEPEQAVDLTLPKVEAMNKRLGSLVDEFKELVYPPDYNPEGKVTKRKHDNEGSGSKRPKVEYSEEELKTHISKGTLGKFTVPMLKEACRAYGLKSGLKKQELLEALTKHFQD
UniProt Q12834: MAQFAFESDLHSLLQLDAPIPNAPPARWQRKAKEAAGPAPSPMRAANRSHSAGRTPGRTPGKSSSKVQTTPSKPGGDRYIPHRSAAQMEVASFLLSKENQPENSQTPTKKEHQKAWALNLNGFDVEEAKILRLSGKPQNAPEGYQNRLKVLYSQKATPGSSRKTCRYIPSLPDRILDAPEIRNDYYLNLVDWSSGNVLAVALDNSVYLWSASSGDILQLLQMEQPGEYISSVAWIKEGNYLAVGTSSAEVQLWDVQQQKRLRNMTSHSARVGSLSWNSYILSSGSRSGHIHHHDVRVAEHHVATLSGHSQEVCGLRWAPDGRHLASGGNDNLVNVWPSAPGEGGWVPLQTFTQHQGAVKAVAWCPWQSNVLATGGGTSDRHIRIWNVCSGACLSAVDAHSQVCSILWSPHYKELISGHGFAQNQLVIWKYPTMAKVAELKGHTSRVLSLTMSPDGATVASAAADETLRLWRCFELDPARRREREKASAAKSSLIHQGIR
UniProt Q16254: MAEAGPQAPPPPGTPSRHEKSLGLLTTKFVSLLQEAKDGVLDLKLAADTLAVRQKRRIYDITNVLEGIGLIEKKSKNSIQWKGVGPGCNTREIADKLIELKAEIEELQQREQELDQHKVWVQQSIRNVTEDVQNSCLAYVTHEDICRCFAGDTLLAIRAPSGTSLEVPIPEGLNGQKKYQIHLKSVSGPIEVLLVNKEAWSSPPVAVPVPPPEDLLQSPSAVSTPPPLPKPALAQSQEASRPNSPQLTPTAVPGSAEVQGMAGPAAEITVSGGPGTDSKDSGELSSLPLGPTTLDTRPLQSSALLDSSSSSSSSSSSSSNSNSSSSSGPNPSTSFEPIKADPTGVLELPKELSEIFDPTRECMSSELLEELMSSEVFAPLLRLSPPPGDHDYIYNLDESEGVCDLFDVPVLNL
UniProt Q09472: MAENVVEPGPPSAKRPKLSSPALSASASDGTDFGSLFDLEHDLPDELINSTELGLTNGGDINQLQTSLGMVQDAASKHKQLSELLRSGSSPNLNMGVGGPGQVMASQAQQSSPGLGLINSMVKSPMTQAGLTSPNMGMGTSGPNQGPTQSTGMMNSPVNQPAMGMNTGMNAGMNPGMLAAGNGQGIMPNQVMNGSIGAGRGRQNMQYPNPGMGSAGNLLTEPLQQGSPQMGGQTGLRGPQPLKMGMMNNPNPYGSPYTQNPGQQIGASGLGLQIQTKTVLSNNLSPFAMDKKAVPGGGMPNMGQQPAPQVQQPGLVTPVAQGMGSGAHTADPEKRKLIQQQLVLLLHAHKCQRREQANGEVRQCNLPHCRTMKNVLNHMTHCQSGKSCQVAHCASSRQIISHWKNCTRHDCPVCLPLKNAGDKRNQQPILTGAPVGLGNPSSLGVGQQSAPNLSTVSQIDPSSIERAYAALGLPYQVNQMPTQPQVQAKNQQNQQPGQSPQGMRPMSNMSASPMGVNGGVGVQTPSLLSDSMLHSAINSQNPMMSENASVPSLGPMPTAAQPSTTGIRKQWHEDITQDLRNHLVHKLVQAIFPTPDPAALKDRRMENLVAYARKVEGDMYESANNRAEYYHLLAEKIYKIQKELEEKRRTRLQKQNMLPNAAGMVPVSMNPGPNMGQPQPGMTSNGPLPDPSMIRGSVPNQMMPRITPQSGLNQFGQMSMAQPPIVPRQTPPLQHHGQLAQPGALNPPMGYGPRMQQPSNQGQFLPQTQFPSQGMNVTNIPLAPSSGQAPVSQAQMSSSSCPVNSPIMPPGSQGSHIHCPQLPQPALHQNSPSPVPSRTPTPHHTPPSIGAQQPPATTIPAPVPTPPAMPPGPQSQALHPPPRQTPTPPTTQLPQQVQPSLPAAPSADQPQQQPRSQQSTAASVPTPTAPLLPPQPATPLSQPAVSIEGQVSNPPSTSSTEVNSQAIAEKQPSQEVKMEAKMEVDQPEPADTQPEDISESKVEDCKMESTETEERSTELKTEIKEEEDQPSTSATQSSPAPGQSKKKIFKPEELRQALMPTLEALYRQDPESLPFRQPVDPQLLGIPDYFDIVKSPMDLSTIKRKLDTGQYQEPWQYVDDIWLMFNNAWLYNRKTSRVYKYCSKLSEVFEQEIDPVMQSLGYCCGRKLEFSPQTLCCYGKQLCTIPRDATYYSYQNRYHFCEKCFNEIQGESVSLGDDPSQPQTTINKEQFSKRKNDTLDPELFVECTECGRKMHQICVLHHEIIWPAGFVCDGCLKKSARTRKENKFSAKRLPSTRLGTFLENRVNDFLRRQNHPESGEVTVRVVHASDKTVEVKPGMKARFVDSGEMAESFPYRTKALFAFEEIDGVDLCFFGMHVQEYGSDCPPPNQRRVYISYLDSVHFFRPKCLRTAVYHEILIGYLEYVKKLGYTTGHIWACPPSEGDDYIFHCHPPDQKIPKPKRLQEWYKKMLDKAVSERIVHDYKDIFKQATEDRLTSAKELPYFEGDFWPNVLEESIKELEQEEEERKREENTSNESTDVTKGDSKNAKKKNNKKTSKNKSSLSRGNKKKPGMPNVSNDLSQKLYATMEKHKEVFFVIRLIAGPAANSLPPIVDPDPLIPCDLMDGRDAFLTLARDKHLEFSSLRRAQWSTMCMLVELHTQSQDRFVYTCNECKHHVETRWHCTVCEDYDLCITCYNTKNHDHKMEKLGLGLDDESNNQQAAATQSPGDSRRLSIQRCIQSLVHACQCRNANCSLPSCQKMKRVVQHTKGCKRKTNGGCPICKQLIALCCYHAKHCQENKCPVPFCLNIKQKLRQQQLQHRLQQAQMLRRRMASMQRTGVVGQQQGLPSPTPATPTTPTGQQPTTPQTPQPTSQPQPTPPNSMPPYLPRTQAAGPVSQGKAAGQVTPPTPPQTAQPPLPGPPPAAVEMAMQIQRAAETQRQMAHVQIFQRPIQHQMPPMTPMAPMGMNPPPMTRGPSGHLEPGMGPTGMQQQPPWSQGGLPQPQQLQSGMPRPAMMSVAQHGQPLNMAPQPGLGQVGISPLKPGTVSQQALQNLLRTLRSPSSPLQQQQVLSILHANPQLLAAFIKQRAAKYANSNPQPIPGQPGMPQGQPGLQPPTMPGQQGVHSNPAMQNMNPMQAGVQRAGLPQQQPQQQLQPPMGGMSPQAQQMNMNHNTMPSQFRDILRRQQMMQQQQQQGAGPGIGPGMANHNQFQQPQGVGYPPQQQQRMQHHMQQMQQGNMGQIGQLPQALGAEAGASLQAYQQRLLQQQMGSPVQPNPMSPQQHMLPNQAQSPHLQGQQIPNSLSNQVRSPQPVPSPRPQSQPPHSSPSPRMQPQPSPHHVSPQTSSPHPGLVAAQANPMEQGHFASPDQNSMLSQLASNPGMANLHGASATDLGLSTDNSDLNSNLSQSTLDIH

Experiments:
[1] = molecular target: ubiquitin-specific peptidase 24 (human (endogenous in H1299, A549, U2OS, HeLa)) (UniProt Q9UPU5); assay: co-IP; A549 cells in interphase and in mitosis; immunoprecipitation with anti-USP24 antibody, western blotting for USP24, CDK1, cyclin B1 and actin
[2] = molecular target: ubiquitin-specific peptidase 24 (human (endogenous in H1299, A549, U2OS, HeLa)) (UniProt Q9UPU5); assay: co-IP; A549 and U2OS cells, endogenous proteins; immunoprecipitation with anti-USP24 antibody, western blotting
[3] = molecular target: ubiquitin-specific peptidase 24 (human (endogenous in H1299, A549, U2OS, HeLa)) (UniProt Q9UPU5); assay: co-IP; H1299 cells, endogenous proteins; immunoprecipitation with anti-USP24 and anti-ERK antibodies, western blotting with anti-USP24, anti-Erk and anti-p-Erk
[4] = molecular target: ubiquitin-specific peptidase 24 (human (endogenous in H1299, A549, U2OS, HeLa)) (UniProt Q9UPU5); assay: co-IP; A549 cells with or without HA-Ku70 expression; immunoprecipitation with anti-USP24 antibody, western blotting
[5] = molecular target: ubiquitin-specific peptidase 24 (human (endogenous in H1299, A549, U2OS, HeLa)) (UniProt Q9UPU5); assay: co-IP; U2OS cells overexpressing HA-p300; immunoprecipitation with a USP24 antibody, western blotting
[6] = molecular target: Ku70 (human (endogenous in A549, U2OS)) (UniProt P12956); assay: co-IP; U2OS cells overexpressing HA-p300; immunoprecipitation with a Ku70 antibody, western blotting
[7] = molecular target: USP24 (yeast two-hybrid fusion) (UniProt Q9UPU5); assay: two-hybrid; yeast two-hybrid assay of Ku70 and USP24, including truncated domains of each
[8] = molecular target: cdc20 (human (endogenous in A549)) (UniProt Q12834); assay: co-IP; A549 cells treated with nocodazole; immunoprecipitation with anti-CDC20, western blotting
[9] = molecular target: Bax (human (endogenous in H1299)) (UniProt Q07812); assay: co-IP; H1299 cells, endogenous proteins; immunoprecipitation with anti-USP24 and with anti-Bax antibodies, western blotting
[10] = molecular target: Ku70 (human (endogenous in A549, U2OS)) (UniProt P12956); assay: co-IP; A549 cells, endogenous proteins; immunoprecipitation with anti-Ku70 antibody, western blotting
[11] = molecular target: T1, securin (human (endogenous in HeLa)) (UniProt O95997); assay: co-IP; cells treated with nocodazole, immunoprecipitation with anti-securin; HeLa cells with or without nocodazole, immunoprecipitation with anti-USP24 antibody; western blotting
T1 sequence: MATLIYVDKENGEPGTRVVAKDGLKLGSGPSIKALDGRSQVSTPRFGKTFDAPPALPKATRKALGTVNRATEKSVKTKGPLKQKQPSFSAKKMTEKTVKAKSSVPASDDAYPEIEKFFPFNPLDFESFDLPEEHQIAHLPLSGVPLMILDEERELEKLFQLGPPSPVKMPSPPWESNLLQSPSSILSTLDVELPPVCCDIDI

With “CDK1/cyclin B (from UniProt P06493 1-297; P14635 1-433) (complex)” the binding [1] was “binds”.
With E2F4 (from UniProt Q16254 1-413) the binding [2] was “binds”.
In the case of “Erk1 (from UniProt P27361 1-379) (enzyme)”, the binding [3] was “binds”.
In the case of “Erk2 (from UniProt P28482 1-360) (enzyme)”, the binding [3] was “binds”.
HA-Ku70 (from UniProt P12956 1-609) was tested, and the binding [4] was “binds”.
With “HA-p300 (from UniProt Q09472 1-2414) (enzyme)” the binding [5] was “binds” and the binding [6] was “binds”.
With “Ku70 (yeast two-hybrid fusion) (from UniProt P12956 1-609)” the binding [7] was “binds”.
In the case of “USP24 phosphorylated at Ser1616, Ser2047 and Ser2604 (from UniProt Q9UPU5 1-2620) (enzyme)”, the binding [8] was “binds”.
In the case of “p-Erk1 (from UniProt P27361 1-379) (enzyme)”, the binding [3] was “binds”.
For “p-Erk2 (from UniProt P28482 1-360) (enzyme)”, the binding [3] was “binds”.
In the case of “ubiquitin-specific peptidase 24 (from UniProt Q9UPU5 1-2620) (enzyme)”, the binding [9] was “binds”, the binding [10] was “binds” and the binding [11] was “binds”. The binding [8] was “binds”.
